Source: article PMC7819943, “Rice protein-binding microarrays: a tool to detect cis-acting elements near promoter regions in rice”
The list shows a part of the results.

Molecular target: T1, OsSMF1 (Oryza sativa, UniProt Q6ZLB0 1-436)
T1 sequence: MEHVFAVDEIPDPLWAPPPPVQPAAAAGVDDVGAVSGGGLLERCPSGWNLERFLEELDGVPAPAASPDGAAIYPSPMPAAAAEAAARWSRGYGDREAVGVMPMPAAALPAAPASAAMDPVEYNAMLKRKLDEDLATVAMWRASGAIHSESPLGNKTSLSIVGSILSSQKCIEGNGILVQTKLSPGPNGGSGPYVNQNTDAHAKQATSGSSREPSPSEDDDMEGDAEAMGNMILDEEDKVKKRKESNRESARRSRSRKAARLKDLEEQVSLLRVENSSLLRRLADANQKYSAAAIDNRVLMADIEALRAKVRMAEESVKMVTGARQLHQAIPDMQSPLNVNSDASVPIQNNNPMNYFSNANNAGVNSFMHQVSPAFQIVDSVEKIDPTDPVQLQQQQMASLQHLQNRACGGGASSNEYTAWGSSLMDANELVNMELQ
Assay: protein-binding microarray (RPBM); PBS, 2% BSA, 51.3 ng/ul salmon testes DNA, 50 uM zinc acetate, 200 nM TF, 25 C, 1 h; high values mean tight binding
Conditions: protein: recombinant; tags: N-terminal polyhistidine and DsRed monomer fusion (pET32a); chain copies: 2; label: CyDye5-dUTP incorporated in the synthesized complementary strand; 3' TTTTT single-stranded linker to array surface; dsDNA, one strand shown
How it was run: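 Binding signal here means per-feature fluorescence intensity in arbitrary units. The values were read on an Axon 4000B scanner after a custom Agilent array, double-stranded by primer extension with Cy5-dUTP, was incubated with 200 nM protein at 25 °C for 1 h in PBS with 2% BSA, salmon testes DNA and 50 µM zinc acetate, then washed. The proteins were transcription factors with an N-terminal polyhistidine tag and DsRed, expressed in E. coli BL21-CodonPlus and purified on Ni–NTA.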

In order of falling binding signal:
1. AAATAAATAGGGAATTTAACCTTGCCACGTCACCGATCCGCGGAGTCACCTAGTGCAG  48100 fluorescence intensity (a.u.)
2. TCCTTCCATACTGTATAAATACTTTGAAATTCTAATATAGCGGAGTCACCTAGTGCAG  44200 fluorescence intensity (a.u.)
3. ATCGCCCCGCTGACCGCCTCCTCCCGCGGCTGTCCGAGCGCGGAGTCACCTAGTGCAG  41300 fluorescence intensity (a.u.)
4. CAAAAGGGAATGCTTTAGGCAGATCATGGAGATAAAGACTCGGAGTCACCTAGTGCAG  39000 fluorescence intensity (a.u.)
5. AGTTTTATCCTACGTGGCTGCTGAGTCAGCGTGGGACCCACGGAGTCACCTAGTGCAG  38600 fluorescence intensity (a.u.)
6. GAGATATCTGTTGATTAAAGTCCCCATGGATTAGCTGTGTCGGAGTCACCTAGTGCAG  35000 fluorescence intensity (a.u.)
7. GTGAGGAGGGTGAGGACGAAGTAGTCCGGGAGGTCGGCGCCGGAGTCACCTAGTGCAG  23000 fluorescence intensity (a.u.)
8. CATCCCGCTCAACTACGCCACGTTCCAGCCGGGCACCACGCGGAGTCACCTAGTGCAG  22200 fluorescence intensity (a.u.)
9. CCCGCCACCGCGCAGCCGCCCGACGCCGTCGCCGCTCGTCCGGAGTCACCTAGTGCAG  16400 fluorescence intensity (a.u.)
10. CTAAAGTTGTATTGAAAGCTCGTTCTACTGCCTATCTTTTCGGAGTCACCTAGTGCAG  16100 fluorescence intensity (a.u.)
11. GTGCATGGCGTGGCGTGGCGTGGCGTGGCGTGACATGGCACGGAGTCACCTAGTGCAG  15900 fluorescence intensity (a.u.)
12. AAGTATGCTAGCTTTCCCTCCACGTATGCTAGCTTTCCGACGGAGTCACCTAGTGCAG  10400 fluorescence intensity (a.u.)
13. ACACCCATAGAACAAGAAACTGCCTCGTCACCGTAGCTTACGGAGTCACCTAGTGCAG  7850 fluorescence intensity (a.u.)
14. CCCGGGAACACGCTCCAGAGATGCTGACTATCTTTCCCTTCGGAGTCACCTAGTGCAG  7100 fluorescence intensity (a.u.)
15. CCAGAGCTGCCTGTTACGTGGCCGACGACCACCGGTAGTGCGGAGTCACCTAGTGCAG  6320 fluorescence intensity (a.u.)
16. GCCGGGCGGGCGTGCGTCGTTATGTGAGGGCAAGGCCGCTCGGAGTCACCTAGTGCAG  6060 fluorescence intensity (a.u.)
17. ACCACAATGGCATACGTGTCATGCAACCAAATAGGGAGCACGGAGTCACCTAGTGCAG  5620 fluorescence intensity (a.u.)
18. AGACTGGTGCTGCTGGATCCGTCTACCGTGGCTTGCCACCCGGAGTCACCTAGTGCAG  4850 fluorescence intensity (a.u.)
19. GAGAGGGGACGGGACAGCCGGCCGATGCTAAGTGGGTCTCCGGAGTCACCTAGTGCAG  4840 fluorescence intensity (a.u.)
20. AGTCCAAGAGCGTGACGCATGTTCGGTACCACGCGCACAACGGAGTCACCTAGTGCAG  4740 fluorescence intensity (a.u.)
21. CTCAGCACTAAGCTCTTATGTGTGTGTCACACTGTCACTACGGAGTCACCTAGTGCAG  4720 fluorescence intensity (a.u.)
22. CAGCTCCTTGTCACTGTGTTATTCCTTTTGACGCATGTTGCGGAGTCACCTAGTGCAG  4610 fluorescence intensity (a.u.)
23. TATATGGTCCAACCTGTCATACACACATTGCGTATTGGAGCGGAGTCACCTAGTGCAG  4270 fluorescence intensity (a.u.)
24. CTCATGTGAAATGTGTCGGTGACTCGTAGTCTTGCCCATGCGGAGTCACCTAGTGCAG  4260 fluorescence intensity (a.u.)
25. CACGTGCAGTGACATGCTGACGTATGGGTGCAGGCCGCTGCGGAGTCACCTAGTGCAG  4260 fluorescence intensity (a.u.)
26. TTCTTATTGTCTTAGCTACAAACGATCCATACAAACATTGCGGAGTCACCTAGTGCAG  4240 fluorescence intensity (a.u.)
27. TTTTATGTATGTATTCAAATATTTCGATGTGACGGAATTTCGGAGTCACCTAGTGCAG  4210 fluorescence intensity (a.u.)
28. CGGCACCTCAGCACATCACACCAGATATATAATTAACCACCGGAGTCACCTAGTGCAG  4030 fluorescence intensity (a.u.)
29. GCACCACCACCGCGTCAGTATACAAACGGCGGCGACCAACCGGAGTCACCTAGTGCAG  3860 fluorescence intensity (a.u.)
30. AATCCACACTGGGCCCTTGCATGGAGCATGGGCCGAATAACGGAGTCACCTAGTGCAG  3810 fluorescence intensity (a.u.)
31. TTTAAACATCTTTCTATGGAACTGGTGCATTCTTGTTCATCGGAGTCACCTAGTGCAG  3680 fluorescence intensity (a.u.)
32. TTCATATCATGAACCTTCCAATGGCATCATCTACGAAATGCGGAGTCACCTAGTGCAG  3590 fluorescence intensity (a.u.)
33. GAACCCCGGACAAAATTGGGGCAGCACCGCGTGACACATTCGGAGTCACCTAGTGCAG  3540 fluorescence intensity (a.u.)
34. GTGGGCCGTGCCTCCCGTGACGCCATTTCAGCGACCGGAACGGAGTCACCTAGTGCAG  3480 fluorescence intensity (a.u.)
35. GAGAGCCTGAGAAAAGGCGTGTTGCTGATGCGGGTTTTCCCGGAGTCACCTAGTGCAG  3420 fluorescence intensity (a.u.)
36. TTTGAAGGGAATTACAGATGTGCTTGGCTCAAAATGCAGACGGAGTCACCTAGTGCAG  3380 fluorescence intensity (a.u.)
37. TGTGTTGGATCGGTTGGACGCGCTCACTCGGTTTGGTTTGCGGAGTCACCTAGTGCAG  3290 fluorescence intensity (a.u.)
38. TTCTCCCCTTTCATCTCCACGCGCCCACCGCTTCCCGCTCCGGAGTCACCTAGTGCAG  3210 fluorescence intensity (a.u.)
39. GCGTGCACTCCCGTCCTGTTGTCGTGCCGTCTCCAGTCCCCGGAGTCACCTAGTGCAG  3210 fluorescence intensity (a.u.)
40. ATGTACTTGTGATTCGTGGATTGGTGGACATGACAGGTAACGGAGTCACCTAGTGCAG  3200 fluorescence intensity (a.u.)
41. TCGAGCCGGTAGATGTCTCAGCTAGTGCTTTATCTGTTCGCGGAGTCACCTAGTGCAG  3180 fluorescence intensity (a.u.)
42. CAGTATATTTTCAAATTTAATTTGGCTTGAGGCAGCTGCCCGGAGTCACCTAGTGCAG  3160 fluorescence intensity (a.u.)
